Results as given in patent US4959368A, “Therapeutic agent for neurological diseases” (Mitsui Petrochemical Industries Ltd., priority 1986, dated 1990).
The name of at least one read-out is uncertain.

Test system: mouse neuroblastoma cell line neuro-2a
Experiment: Activity on neuro-2a, cells with outgrown neurites
Type: cell-based
Method: In order to examine the effects of the test compounds, the following method was also employed.
Mouse neuro 2a cells in the logarithmic growth period in the Dulbecco's modified Eagle's medium (DMEM) containing 10% FCS was seeded in a 48-well plate so that the number of cells was 1,000 cells/well, and cultured for one day in 0.25 ml of the culture fluid in each well. The culture medium was then replaced by a medium containing each of the test compounds and FCS, and the cells were further cultured for 24 hours. Then, a 4% aqueous glutaraldehyde solution in the same amount as the medium (0.25 ml) was added, and the culture fluid was left to stand at room temperature for 2 hours to fix the cells. After washing with water, a 0.05% aqueous solution of methylene blue was added to stain the cells. Under a microscope, the number of cells containing outgrown neurites (cells having at least one neutrite with a length at least two times as large as the long diameter of the cell) was counted visually, and the proportion of these cells in the entire cells was calculated. The well was observed over 5 or more visual fields (at least 2% of the entire surface area of the well) continuous to the left and right from a mark put at the center of the well, and more than 200 cells was counted. One drug compound was used in 6 different concentrations at most, and three runs were conducted for each concentration.

SMILES: CC(C)Nc1ncccn1.O=P(O)(O)O [Isaxonine, 2-isopropylaminopyrimidine ortho-phosphate, reference compound]
- Cells having neurites with a length at least twice the long diameter of cell/total number of cells (Table 3 Run No. 10, concentration not given, control 1.7 ± 0.7): 30.0 ± 1.1%

SMILES: c1nc(N2CCNCC2)nc2c1CCCC2 [Compound 206]
- Cells having neurites with a length at least twice the long diameter of cell/total number of cells (Table 3 first Run No. 5, concentration not given, no control given): 6.7 ± 0.7%

SMILES: O=c1[nH]ccc2nc(N3CCNCC3)ncc12 [Compound 701]
- Cells having neurites with a length at least twice the long diameter of cell/total number of cells (Table 3 second Run No. 5, concentration printed only as (mM), control 4.5 ± 0.3): 54.9 ± 1.61%
